# Data published in PubChem BioAssay AID282 (DTP/NCI, 2004).
# The list is a part of this screen's results and no random one: it gathers some chemical classes. Not every dose and run of a compound is shown. T/C: endpoint of the treated group in % of that of the vehicle group. For survival time, the PubChem record calls one and a half times the control and up active, and a quarter to a half above the control has no call in these data; cut-offs in other NCI protocols can differ. Some entries show no survivor count and are marked so; the dose need not have been tolerated. Schedule codes are those of the source, read here as Q, the interval in days (D) or hours (H), X, the number of doses. Some entries were tested several times; their values stand side by side, smallest first.
# System: BDF1 mice, L1210 terephthalanilide-resistant leukemia ip, survival T/C
# Test: NCI In Vivo Anticancer Drug Screen. Data for tumor model L1210 Leukemia resistant to A Terephthalanilide; NSC 38280 (intraperitoneal) in B6D2F1 (BDF1) mice
# Conditions: T/C endpoint: mean survival time, schedule: Q01DX010 (ip), vehicle: saline, higher T/C = longer survival
# Protocol: The antitumor activity of compounds was measured in mice bearing transplantable tumors. Survival or tumor size were measured and the results are expressed as the measurement made in the treated group (T) divided by the measurement made in the vehicle treated control group (C). The tumor model used in this assay is L1210 Leukemia resistant to A Terephthalanilide; NSC 38280 (intraperitoneal) in B6D2F1 (BDF1) mice
structure (smiles),measurement,setting,value
CN(CCCl)CCCl,T/C,dose: 0.13 mg/kg/injection,115 [survivor count not shown] and 130 % of control [survivor count not shown]
same,T/C,dose: 0.25 mg/kg/injection,115 [survivor count not shown] and 118 % of control [survivor count not shown]
same,T/C,dose: 0.5 mg/kg/injection,91 [survivor count not shown] and 113 % of control [survivor count not shown]
